Data as given in PubChem BioAssay AID1259308 (NCATS, 2017).
Assay: 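Genes whose loss raises luciferase production in HEK293 cells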 (primary screen). System: human HEK293 embryonic kidney cells stably expressing firefly luciferase (HEK-CMV-Luc2-Hygro). Reagents: single siRNA against human genes, 0.8 pmol siRNA per well. Timing: 72 h. Measured: 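Reporter luminescence and viable-cell signal on separate replicate plates, given as percent of non-targeting control and median/MAD z-scores, plus per-cell luciferase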. Scale: total luciferase, z-score and total luciferase, % of control: higher = more reporter protein produced; luciferase per cell, z-score: higher = more reporter output per viable cell; viable cells, % of control: higher = more viable cells. Call rule: 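An siRNA counts as active if its total luciferase robust z-score exceeds 3; genes with two or more such siRNAs out of three were retested with fresh siRNAs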. Calls: active = raised luciferase; inactive = no rise.
The deposit covers about 59,000 reagents; this is a part drawn at random. Of all reagents, about 1,510 (2.6%) were called active. 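Calls use total luciferase alone and ignore viability, so some active siRNAs may act by altering cell number.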 Unmarked entries are inactive.

no.	Target gene	PubChem SID	total luciferase, z-score	total luciferase, % of control	luciferase per cell, z-score	viable cells, % of control
1	GKAP1	SID160731947	1.59	114	0.415	114
2	GKAP1	SID160750374	-0.312	75.7	-0.676	101
3	GKAP1	SID160750375	2.18	125	2.08	80.9
4	TSLP	SID160753368	-0.96	62.8	-0.497	80
5	TSLP	SID160753369	2.48	131	1.25	105
6	TSLP	SID160753370	1.45	111	2.57	62.9
7	TULP4	SID160745469	-1.39	54.2	-1.15	82
8	TULP4	SID160745470	-0.66	68.8	-0.607	90.1
9	TULP4	SID160745471	0.617	94.2	0.578	90.4
10	PWWP2A	SID160755049	0.717	96.1	0.301	99.3
11	PWWP2A	SID160755051	0.44	90.6	0.724	83.7
12	PWWP2A	SID160755052	-1.16	58.8	-1.67	102
13	HID1	SID160763097	0.559	93	0.444	92.5
14	HID1	SID160763098	-0.0676	80.5	0.011	89.7
15	HID1	SID160763099	0.236	86.6	0.191	92
16	SLC39A5	SID160730998	1.34	108	1.37	84.5
17	SLC39A5	SID160762880	0.427	90.4	0.1	98.4
18	SLC39A5	SID160762881	0.875	99.3	0.311	102
19	KCTD7	SID160759458	1.29	108	2.22	67
20	KCTD7	SID160759461	0.00887	82.1	0.304	84.6
21	KCTD7	SID160759462	-1.61	49.9	-2.04	95.3
22	ZNF678	SID160764252	3.17 (active)	145	2.96	74.2
23	ZNF678	SID160764253	-0.899	64	-0.99	92.8
24	ZNF678	SID160764254	0.667	95.2	0.347	97
25	NKG7	SID160723957	0.0296	82.5	-0.417	103
26	NKG7	SID160778081	0.813	98.1	0.053	108
27	NKG7	SID160778082	2.58	133	1.75	93.8
28	ATG5	SID160722299	0.915	100	1.07	84.3
29	ATG5	SID160722300	0.345	88.7	-0.552	115
30	ATG5	SID160722302	-0.256	76.8	0.0105	85.6
31	LOC728283 (retired record)	SID160771650	1.42	110	2.32	66.8
32	LOC728283 (retired record)	SID160771651	-1.04	61.2	0.233	64.4
33	LOC728283 (retired record)	SID160771652	-1.05	60.9	-1.32	96.5
34	ZNF439	SID160753757	0.79	97.6	0.578	93.7
35	ZNF439	SID160753758	0.305	87.9	-0.0637	99.9
36	ZNF439	SID160753759	0.262	87.1	-0.787	120
37	NPSR1	SID160765573	0.255	87	-0.772	119
38	NPSR1	SID160765574	-1.45	53.1	-0.981	76.8
39	NPSR1	SID160765575	0.112	84.1	0.878	74.6
40	PLEKHG5	SID160745981	-0.217	77.6	-0.799	107
41	PLEKHG5	SID160745982	1.71	116	1.8	80.7
42	PLEKHG5	SID160745983	1.43	110	1.78	77.2
43	GOLGA1	SID160772460	1.23	106	1.19	86.8
44	GOLGA1	SID160772468	1.19	106	2.18	66.6
45	GOLGA1	SID160772474	0.519	92.2	0.43	92
46	SECTM1	SID160716540	0.617	94.2	0.608	89.6
47	SECTM1	SID160716541	0.0798	83.5	0.0471	92.1
48	SECTM1	SID160716543	-2.25	37.2	-2.11	72.5
49	IL1A	SID160775672	-0.181	78.3	-0.522	100
50	IL1A	SID160775673	-0.489	72.2	-1.19	110
51	IL1A	SID160775674	-0.314	75.6	-0.237	90
52	SUPT3H	SID160720102	-0.24	77.1	-0.377	95.2
53	SUPT3H	SID160720104	0.255	87	0.163	93.1
54	SUPT3H	SID160735107	-0.971	62.6	-1.65	108
55	DNAJC5	SID160750404	-0.399	73.9	-0.314	89.8
56	DNAJC5	SID160750405	2.41	130	1.88	88.4
57	DNAJC5	SID160750406	0.334	88.5	2.57	50.3

7 entries from above in another layout:
{"Target gene":"SLC39A5","PubChem SID":"SID160762880","total luciferase, z-score":0.427,"total luciferase, % of control":90.4,"luciferase per cell, z-score":0.1,"viable cells, % of control":98.4}
{"Target gene":"SLC39A5","PubChem SID":"SID160762881","total luciferase, z-score":0.875,"total luciferase, % of control":99.3,"luciferase per cell, z-score":0.311,"viable cells, % of control":102}
{"Target gene":"KCTD7","PubChem SID":"SID160759458","total luciferase, z-score":1.29,"total luciferase, % of control":108,"luciferase per cell, z-score":2.22,"viable cells, % of control":67}
{"Target gene":"KCTD7","PubChem SID":"SID160759461","total luciferase, z-score":0.00887,"total luciferase, % of control":82.1,"luciferase per cell, z-score":0.304,"viable cells, % of control":84.6}
{"Target gene":"KCTD7","PubChem SID":"SID160759462","total luciferase, z-score":-1.61,"total luciferase, % of control":49.9,"luciferase per cell, z-score":-2.04,"viable cells, % of control":95.3}
{"Target gene":"ZNF678","PubChem SID":"SID160764252","total luciferase, z-score":"3.17 (active)","total luciferase, % of control":145,"luciferase per cell, z-score":2.96,"viable cells, % of control":74.2}
{"Target gene":"ZNF678","PubChem SID":"SID160764253","total luciferase, z-score":-0.899,"total luciferase, % of control":64,"luciferase per cell, z-score":-0.99,"viable cells, % of control":92.8}
